Laboratory results reported in ChEMBL document CHEMBL1157379, “Transcriptional response of Candida parapsilosis following exposure to farnesol” (2007).
Further values from the same series stand in other lists.

What was measured:
Format in all cases: functional
Candida parapsilosis [1] = experiment: Decrease in CGD gene ortholog accession number orf19.3573 expression in Candida parapsilosis CLIB214 at 50 uM after 2 hrs by microarray based transcriptional profiling relative to control
Candida parapsilosis [2] = experiment: Increase in CGD gene ortholog accession number orf19.1675 expression in Candida parapsilosis CLIB214 at 50 uM after 2 hrs by microarray based transcriptional profiling relative to control
Candida parapsilosis [3] = experiment: Decrease in CGD gene ortholog accession number orf19.6044 expression in Candida parapsilosis CLIB214 at 50 uM after 2 hrs by microarray based transcriptional profiling relative to control
Candida parapsilosis [4] = experiment: Increase in ADO1 gene expression in Candida parapsilosis CLIB214 at 50 uM after 2 hrs by microarray based transcriptional profiling relative to control
Candida parapsilosis [5] = experiment: Decrease in CGD gene ortholog accession number orf19.413 expression in Candida parapsilosis CLIB214 at 50 uM after 2 hrs by microarray based transcriptional profiling relative to control
Candida parapsilosis [6] = experiment: Increase in GenBank accession number NP_943637.1 expression in Candida parapsilosis CLIB214 at 50 uM after 2 hrs by microarray based transcriptional profiling relative to control
Candida parapsilosis [7] = experiment: Decrease in CGD gene ortholog accession number orf19.5406 expression in Candida parapsilosis CLIB214 at 50 uM after 2 hrs by microarray based transcriptional profiling relative to control
Candida parapsilosis [8] = experiment: Increase in CGD gene ortholog accession number orf19.2749 expression in Candida parapsilosis CLIB214 at 50 uM after 2 hrs by microarray based transcriptional profiling relative to control
Candida parapsilosis [9] = experiment: Increase in CGD gene ortholog accession number orf19.6082 expression in Candida parapsilosis CLIB214 at 50 uM after 2 hrs by microarray based transcriptional profiling relative to control
Candida parapsilosis [10] = experiment: Increase in CGD gene ortholog accession number orf19.1890 expression in Candida parapsilosis CLIB214 at 50 uM after 2 hrs by microarray based transcriptional profiling relative to control
Candida parapsilosis [11] = experiment: Increase in GRE3 gene expression in Candida parapsilosis CLIB214 at 50 uM after 2 hrs by microarray based transcriptional profiling relative to control
Candida parapsilosis [12] = experiment: Decrease in HEM2 gene expression in Candida parapsilosis CLIB214 at 50 uM after 2 hrs by microarray based transcriptional profiling relative to control
Candida parapsilosis [13] = experiment: Increase in CGD gene ortholog accession number orf19.3015 expression in Candida parapsilosis CLIB214 at 50 uM after 2 hrs by microarray based transcriptional profiling relative to control
Candida parapsilosis [14] = experiment: Increase in CGD gene ortholog accession number orf19.4900 expression in Candida parapsilosis CLIB214 at 50 uM after 2 hrs by microarray based transcriptional profiling relative to control
Candida parapsilosis [15] = experiment: Decrease in CGD gene ortholog accession number orf19.2770 expression in Candida parapsilosis CLIB214 at 50 uM after 2 hrs by microarray based transcriptional profiling relative to control
Candida parapsilosis [16] = experiment: Decrease in CGD gene ortholog accession number orf19.4851 expression in Candida parapsilosis CLIB214 at 50 uM after 2 hrs by microarray based transcriptional profiling relative to control
Candida parapsilosis [17] = experiment: Decrease in CGD gene ortholog accession number orf19.5040 expression in Candida parapsilosis CLIB214 at 50 uM after 2 hrs by microarray based transcriptional profiling relative to control
Candida parapsilosis [18] = experiment: Increase in CGD gene ortholog accession number orf19.7238 expression in Candida parapsilosis CLIB214 at 50 uM after 2 hrs by microarray based transcriptional profiling relative to control
Candida parapsilosis [19] = experiment: Increase in VCX1 gene expression in Candida parapsilosis CLIB214 at 50 uM after 2 hrs by microarray based transcriptional profiling relative to control
Candida parapsilosis [20] = experiment: Increase in CGD gene ortholog accession number orf19.7032 expression in Candida parapsilosis CLIB214 at 50 uM after 2 hrs by microarray based transcriptional profiling relative to control
Candida parapsilosis [21] = experiment: Increase in CGD gene ortholog accession number orf19.4750 expression in Candida parapsilosis CLIB214 at 50 uM after 2 hrs by microarray based transcriptional profiling relative to control
Candida parapsilosis [22] = experiment: Increase in CAT1 gene expression in Candida parapsilosis CLIB214 at 50 uM after 2 hrs by microarray based transcriptional profiling relative to control
Candida parapsilosis [23] = experiment: Increase in CGD gene ortholog accession number orf19.497 expression in Candida parapsilosis CLIB214 at 50 uM after 2 hrs by microarray based transcriptional profiling relative to control
Candida parapsilosis [24] = experiment: Increase in CGD gene ortholog accession number orf19.4488 expression in Candida parapsilosis CLIB214 at 50 uM after 2 hrs by microarray based transcriptional profiling relative to control
Candida parapsilosis [25] = experiment: Decrease in KIS2 gene expression in Candida parapsilosis CLIB214 at 50 uM after 2 hrs by microarray based transcriptional profiling relative to control
Candida parapsilosis [26] = experiment: Increase in GenBank accession number NP_943631.1 expression in Candida parapsilosis CLIB214 at 50 uM after 2 hrs by microarray based transcriptional profiling relative to control
Candida parapsilosis [27] = experiment: Decrease in CGD gene ortholog accession number orf19.5180 expression in Candida parapsilosis CLIB214 at 50 uM after 2 hrs by microarray based transcriptional profiling relative to control
Candida parapsilosis [28] = experiment: Increase in CGD gene ortholog accession number orf19.6369 expression in Candida parapsilosis CLIB214 at 50 uM after 2 hrs by microarray based transcriptional profiling relative to control
Candida parapsilosis [29] = experiment: Decrease in CGD gene ortholog accession number orf19.1476 expression in Candida parapsilosis CLIB214 at 50 uM after 2 hrs by microarray based transcriptional profiling relative to control
Candida parapsilosis [30] = experiment: Decrease in CGD gene ortholog accession number orf19.4903 expression in Candida parapsilosis CLIB214 at 50 uM after 2 hrs by microarray based transcriptional profiling relative to control
Candida parapsilosis [31] = experiment: Increase in CGD gene ortholog accession number orf19.949 expression in Candida parapsilosis CLIB214 at 50 uM after 2 hrs by microarray based transcriptional profiling relative to control
Candida parapsilosis [32] = experiment: Increase in GLN1 gene expression in Candida parapsilosis CLIB214 at 50 uM after 2 hrs by microarray based transcriptional profiling relative to control
Candida parapsilosis [33] = experiment: Increase in CGD gene ortholog accession number orf19.2982 expression in Candida parapsilosis CLIB214 at 50 uM after 2 hrs by microarray based transcriptional profiling relative to control
Candida parapsilosis [34] = experiment: Decrease in CGD gene ortholog accession number orf19.606 expression in Candida parapsilosis CLIB214 at 50 uM after 2 hrs by microarray based transcriptional profiling relative to control
Candida parapsilosis [35] = experiment: Increase in CGD gene ortholog accession number orf19.1536 expression in Candida parapsilosis CLIB214 at 50 uM after 2 hrs by microarray based transcriptional profiling relative to control
Candida parapsilosis [36] = experiment: Increase in GenBank accession number NP_943636.1 expression in Candida parapsilosis CLIB214 at 50 uM after 2 hrs by microarray based transcriptional profiling relative to control

## CC(C)=CCC/C(C)=C/CC/C(C)=C/CO [FARNESOL]
Candida parapsilosis [1]
  fold change (FC): 1.52
Candida parapsilosis [2]
  fold change (FC): 1.58
Candida parapsilosis [3]
  fold change (FC): 2.4
Candida parapsilosis [4]
  fold change (FC): 1.85
Candida parapsilosis [5]
  fold change (FC): 1.78
Candida parapsilosis [6]
  fold change (FC): 3.55
Candida parapsilosis [7]
  fold change (FC): 1.65
Candida parapsilosis [8]
  fold change (FC): 1.71
Candida parapsilosis [9]
  fold change (FC): 1.65
Candida parapsilosis [10]
  fold change (FC): 1.71
Candida parapsilosis [11]
  fold change (FC): 1.74
Candida parapsilosis [12]
  fold change (FC): 1.55
Candida parapsilosis [13]
  fold change (FC): 1.67
Candida parapsilosis [14]
  fold change (FC): 1.65
Candida parapsilosis [15]
  fold change (FC): 1.92
Candida parapsilosis [16]
  fold change (FC): 1.78
Candida parapsilosis [17]
  fold change (FC): 1.73
Candida parapsilosis [18]
  fold change (FC): 2.41
Candida parapsilosis [19]
  fold change (FC): 1.72
Candida parapsilosis [20]
  fold change (FC): 1.52
Candida parapsilosis [21]
  fold change (FC): 1.58
Candida parapsilosis [22]
  fold change (FC): 1.95
Candida parapsilosis [23]
  fold change (FC): 2.26
Candida parapsilosis [24]
  fold change (FC): 1.7
Candida parapsilosis [25]
  fold change (FC): 1.69
Candida parapsilosis [26]
  fold change (FC): 2.3
Candida parapsilosis [27]
  fold change (FC): 1.67
Candida parapsilosis [28]
  fold change (FC): 1.62
Candida parapsilosis [29]
  fold change (FC): 1.81
Candida parapsilosis [30]
  fold change (FC): 1.63
Candida parapsilosis [31]
  fold change (FC): 1.8
Candida parapsilosis [32]
  fold change (FC): 2.94
Candida parapsilosis [33]
  fold change (FC): 1.59
Candida parapsilosis [34]
  fold change (FC): 1.62
Candida parapsilosis [35]
  fold change (FC): 1.91
Candida parapsilosis [36]
  fold change (FC): 3.81
